The target in experiment [1] is T1, FLAG-ATG7 (human) (UniProt O95352).
T1 sequence: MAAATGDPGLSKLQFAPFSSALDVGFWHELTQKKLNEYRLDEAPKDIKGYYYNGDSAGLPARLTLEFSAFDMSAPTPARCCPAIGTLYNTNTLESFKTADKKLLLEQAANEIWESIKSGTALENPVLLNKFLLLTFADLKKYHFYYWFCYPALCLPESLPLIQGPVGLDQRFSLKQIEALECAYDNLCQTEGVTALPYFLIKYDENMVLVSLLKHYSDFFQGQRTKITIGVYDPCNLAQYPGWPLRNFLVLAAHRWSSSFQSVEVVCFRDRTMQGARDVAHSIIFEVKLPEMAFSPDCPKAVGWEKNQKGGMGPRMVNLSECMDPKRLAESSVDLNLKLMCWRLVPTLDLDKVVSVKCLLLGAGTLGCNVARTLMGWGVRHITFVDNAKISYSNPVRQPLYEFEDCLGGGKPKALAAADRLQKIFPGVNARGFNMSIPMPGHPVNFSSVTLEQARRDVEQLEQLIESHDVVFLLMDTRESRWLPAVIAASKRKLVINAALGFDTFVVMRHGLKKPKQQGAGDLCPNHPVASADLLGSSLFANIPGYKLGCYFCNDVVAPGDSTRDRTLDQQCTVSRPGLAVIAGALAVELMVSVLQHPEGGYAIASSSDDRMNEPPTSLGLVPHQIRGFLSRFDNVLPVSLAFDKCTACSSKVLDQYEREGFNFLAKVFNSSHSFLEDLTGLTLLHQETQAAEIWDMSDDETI
Briefly: co-IP.

Amino acid sequences for entries named in this document (tags omitted).
UniProt Q9H1Y0: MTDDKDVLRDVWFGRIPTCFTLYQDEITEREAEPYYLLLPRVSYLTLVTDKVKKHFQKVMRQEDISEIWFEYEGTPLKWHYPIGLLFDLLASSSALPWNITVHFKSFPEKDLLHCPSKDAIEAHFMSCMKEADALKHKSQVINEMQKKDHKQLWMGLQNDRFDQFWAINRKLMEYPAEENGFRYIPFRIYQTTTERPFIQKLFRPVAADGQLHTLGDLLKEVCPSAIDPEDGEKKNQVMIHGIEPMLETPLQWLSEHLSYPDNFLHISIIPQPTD
UniProt P46934: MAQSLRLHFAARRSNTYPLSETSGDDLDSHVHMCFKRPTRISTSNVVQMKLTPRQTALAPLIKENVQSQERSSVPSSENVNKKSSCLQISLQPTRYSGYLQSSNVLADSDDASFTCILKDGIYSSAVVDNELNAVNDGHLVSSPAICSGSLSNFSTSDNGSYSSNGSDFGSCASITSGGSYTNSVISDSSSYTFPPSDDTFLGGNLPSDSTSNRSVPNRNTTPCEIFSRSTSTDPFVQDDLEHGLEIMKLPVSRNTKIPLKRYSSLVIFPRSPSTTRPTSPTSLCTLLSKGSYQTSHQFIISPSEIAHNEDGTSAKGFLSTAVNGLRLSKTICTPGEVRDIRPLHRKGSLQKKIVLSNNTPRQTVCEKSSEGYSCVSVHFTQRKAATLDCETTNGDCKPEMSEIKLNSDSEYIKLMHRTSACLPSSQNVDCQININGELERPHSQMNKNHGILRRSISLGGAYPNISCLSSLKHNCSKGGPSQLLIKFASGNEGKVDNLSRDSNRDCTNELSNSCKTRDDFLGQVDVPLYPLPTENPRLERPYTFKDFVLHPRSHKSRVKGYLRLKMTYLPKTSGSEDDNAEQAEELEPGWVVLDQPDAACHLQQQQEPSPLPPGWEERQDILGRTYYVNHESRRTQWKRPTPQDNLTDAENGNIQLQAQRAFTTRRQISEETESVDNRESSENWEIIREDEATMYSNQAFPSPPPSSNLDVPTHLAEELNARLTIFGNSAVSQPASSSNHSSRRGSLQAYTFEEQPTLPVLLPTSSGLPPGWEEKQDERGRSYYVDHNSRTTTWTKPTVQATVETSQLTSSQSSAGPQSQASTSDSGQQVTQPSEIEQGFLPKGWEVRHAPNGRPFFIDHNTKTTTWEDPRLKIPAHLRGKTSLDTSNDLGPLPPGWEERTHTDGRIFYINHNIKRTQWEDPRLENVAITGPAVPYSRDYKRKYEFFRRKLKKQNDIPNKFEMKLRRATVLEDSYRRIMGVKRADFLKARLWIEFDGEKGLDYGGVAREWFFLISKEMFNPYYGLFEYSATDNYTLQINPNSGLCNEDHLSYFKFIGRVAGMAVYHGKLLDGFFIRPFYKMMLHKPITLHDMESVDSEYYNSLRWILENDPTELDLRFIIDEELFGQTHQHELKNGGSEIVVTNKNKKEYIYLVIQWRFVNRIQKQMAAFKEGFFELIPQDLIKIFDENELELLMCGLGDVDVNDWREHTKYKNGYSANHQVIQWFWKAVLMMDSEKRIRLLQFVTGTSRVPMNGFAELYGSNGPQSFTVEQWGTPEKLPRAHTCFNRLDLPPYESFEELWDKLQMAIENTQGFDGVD

Experiment [2] concerns the target FLAG-ATG5 (human) (UniProt Q9H1Y0). Briefly: co-IP.

Results are given in words; binding and its absence hold for the method and conditions named. In cells and extracts the contact can be indirect. Some binding calls cover weakened binding; strength is not graded here. For some assays here: Where a sequence is shown, tags or fusion partners need not be part of it.

“E3 ubiquitin ligase NEDD4 (neural precursor cell expressed, developmentally down-regulated 4) (from UniProt P46934 1-1319) (enzyme)”: the binding entry in experiment [1] and in experiment [2] was “binds” each time.
